Laboratory results reported in publication PMC2757917.
These are yes or no findings as the source states them, for the method shown. For some assays here: Binding seen in cells or lysates may run through a third protein. Some results given as binding are weak or reduced against the parent protein; the word gives no strength.

By UniProt entry, the sequences of proteins in these tests, tags left out. Where a name states a change or a piece, a line headed by the entry shows the natural chain unless it says otherwise.
UniProt Q9Y5X4: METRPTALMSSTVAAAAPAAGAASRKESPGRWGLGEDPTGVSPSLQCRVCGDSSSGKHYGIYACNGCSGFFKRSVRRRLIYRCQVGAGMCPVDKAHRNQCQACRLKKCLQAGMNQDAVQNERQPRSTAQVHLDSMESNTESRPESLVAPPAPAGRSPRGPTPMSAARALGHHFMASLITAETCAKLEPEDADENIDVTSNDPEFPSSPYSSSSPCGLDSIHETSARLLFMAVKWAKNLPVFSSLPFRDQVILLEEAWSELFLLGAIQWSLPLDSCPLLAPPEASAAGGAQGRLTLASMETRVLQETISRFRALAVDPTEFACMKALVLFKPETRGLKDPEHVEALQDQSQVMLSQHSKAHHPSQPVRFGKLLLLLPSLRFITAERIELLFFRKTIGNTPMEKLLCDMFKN
UniProt O43186: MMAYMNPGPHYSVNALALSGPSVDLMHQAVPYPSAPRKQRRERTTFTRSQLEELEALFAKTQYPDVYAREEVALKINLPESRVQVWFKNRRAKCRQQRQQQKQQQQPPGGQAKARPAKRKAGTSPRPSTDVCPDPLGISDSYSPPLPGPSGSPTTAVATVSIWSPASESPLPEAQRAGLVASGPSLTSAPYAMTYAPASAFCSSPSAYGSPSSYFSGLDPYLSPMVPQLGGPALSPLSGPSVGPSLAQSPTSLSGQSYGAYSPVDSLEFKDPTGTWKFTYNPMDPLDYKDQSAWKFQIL

Legend:
RLuc-NR2E3 (human) = RLuc-NR2E3 (human) (UniProt Q9Y5X4); assay: FRET or BRET; BRET^2 in living HEK293T cells 48 h after transient transfection; RLuc fusion as donor, GFP^2 fusion as acceptor; 5 uM Coelenterazine h/DeepBlueC, emission 515 nm/410 nm; fixed amounts of vectors and series with increasing GFP^2 vector
[1] = target: NR2E3-RLuc (Renilla luciferase fused to the C-terminus of NR2E3) (human) (UniProt Q9Y5X4); assay: as above
[2] = target: RLuc-Crx (CRX located in the C-terminus of the renilla) (human) (UniProt O43186); assay: as above
[3] = target: Crx-RLuc (human CRX fused in N-terminus of RLuc) (human) (UniProt O43186); assay: as above
[4] = target: human NR2E3 wild-type protein (pcDNA3.1/HisC-hNR2E3) (human) (UniProt Q9Y5X4); assay: native gel or EMSA; total protein extracts of transfected HEK293T cells on an 8% PAA-gel under non-denaturing conditions, Western blot with an anti-NR2E3 antibody

| binding (RLuc-NR2E3 (human)) | binding [1] | binding [2] | binding [3] | binding [4] | Substance |
| --- | --- | --- | --- | --- | --- |
| binds | binds | binds | binds |  | GFP^2-NR2E3 (GFP^2 fused to the N-terminus of NR2E3) (from UniProt Q9Y5X4 1-410) |
|  | binds |  |  |  | GFP^2-NR2E3 p.G56R (from UniProt Q9Y5X4 1-410) |
|  | binds |  |  |  | GFP^2-NR2E3 p.R97H (from UniProt Q9Y5X4 1-410) |
|  | binds |  |  |  | GFP^2-NR2E3 p.R311Q (from UniProt Q9Y5X4 1-410) |
|  |  |  | binds |  | NR2E3 p.G56R-GFP^2 (from UniProt Q9Y5X4 1-410) |
|  |  |  | binds |  | NR2E3 p.R311Q-GFP^2 (from UniProt Q9Y5X4 1-410) |
| binds | binds | binds | binds |  | NR2E3-GFP^2 (from UniProt Q9Y5X4 1-410) |
|  |  |  |  | binds weakly | human NR2E3 wild-type protein (pcDNA3.1/HisC-hNR2E3) (from UniProt Q9Y5X4 1-410) |
